Test results from patent US20240316014A1, “METHOD FOR TREATING DEMYELINATING CONDITIONS” (ACADEMIA SINICA, priority 2023, published 2024).
At least one structure is not confirmed: it was looked up by name or label, or the drawing left a doubt.

Legend:
[1] = test system: human primary fibroblasts (CRL2097); test: Morphology screening for conversion of fibroblasts into oligodendrocyte-like cells; assay type: cell-based
Experimental: The human normal foreskin skin fibroblast primary cells (CRL-2097) were obtained from the ATCC. CRL-2097 cells were cultured at 37° C. with 5% CO2 in high glucose Dulbecco's Modified Eagle's Medium (HG-DMEM) (Life Technologies) supplemented with 10% fetal bovine serum (FBS) (Hyclone). Cell viability was determined by trypan blue staining. All of the cultures were free of mycoplasma. This study was approved by the Academia Sinica ethics committee (IRB number: AS-IRB-BM-17008, AS-IRB-BM-20038). Cells (1×10^4 per well) were plated on 24-well plates. Cells were cultured in HG-DMEM (Life Technologies) supplemented with 10% fetal bovine serum (FBS) (Hyclone) for 2 days. Then the medium was replaced with DMEM/F12 (Gibco) with 1% N2 supplement, 1% B27 supplement (all from Life Technologies), 20 ng/ml Platelet-Derived Growth Factor AA (PDGF-AA), 20 ng/ml Epidermal Growth Factor (EGF), 20 ng/mL Basic Fibroblast Growth Factor (bFGF), 20 ng/ml Neurotrophin-3 (NT3) (all from Peprotech). Then the cells were treated with 3 mM valproic acid (Tocris) for 2 days, 10 μM Y27632 (LC Laboratories), 10 μM SU9516 (R&D Systems), and 10 μM Forskolin (FSK) (Tocris) for 1 day. The reagent is listed in supplementary Table S1 and Table S2. […]

[2] = test system: cuprizone-induced demyelination; settings: 4-week cuprizone-induced demyelination, ref [35]; cited from earlier work

| SMILES | morphological changes in fibroblasts on top of VPA, Y27632 and SU9516 ([1]; high-throughput screen of over 1,500 molecules, added to VPA, Y27632, SU9516 (FIG. 1C)) | network complexity of oligodendrocyte-like cells ([1]; under the combined action of VPA, Y27632, and SU9516) | demyelination [2] |
| --- | --- | --- | --- |
| C=C[C@@]1(C)CC(=O)[C@]2(O)[C@@]3(C)[C@@H](O)CCC(C)(C)[C@@H]3[C@H](O)[C@H](OC(C)=O)[C@@]2(C)O1 [Forskolin, (3R,4aR,5S,6S,6aS,10S,10aR,10bS)-6,10,10b-Trihydroxy-3,4a,7,7,10a-pentamethyl-1-oxo-3-vinyldodecahydro-1H-benzo[f]chromen-5-acetate] | significant effect to induce morphological changes | increase the network complexity |  |
| CC#CCn1c(N2CCC[C@@H](N)C2)nc2c1c(=O)n(Cc1nc(C)c3ccccc3n1)c(=O)n2C [Linagliptin] |  |  | attenuate 4-week cuprizone-induced demyelination |
